Experimental data published in publication PMC10665427.
Residue numbers refer to the chain shown, from its start. Results are given in words; binding and its absence hold for the method and conditions named. Binding seen in cells or lysates may run through a third protein. Some entries that bind do so weakly or less than the wild type. Sequences can lack the tags named with a protein.

Tests used:
[1] = target: T1, Lon^TRAP-Twin-Strep-tag (Lon S674A active-site mutant) (C. crescentus) (UniProt B8GX12); experiment: pull-down; Twin-Strep-tagged Lon^WT or Lon^TRAP purified on Strep-TactinXT from C. crescentus Δlon lysates; elution fractions immunoblotted for DnaA; Δlon lysate as control
T1 sequence: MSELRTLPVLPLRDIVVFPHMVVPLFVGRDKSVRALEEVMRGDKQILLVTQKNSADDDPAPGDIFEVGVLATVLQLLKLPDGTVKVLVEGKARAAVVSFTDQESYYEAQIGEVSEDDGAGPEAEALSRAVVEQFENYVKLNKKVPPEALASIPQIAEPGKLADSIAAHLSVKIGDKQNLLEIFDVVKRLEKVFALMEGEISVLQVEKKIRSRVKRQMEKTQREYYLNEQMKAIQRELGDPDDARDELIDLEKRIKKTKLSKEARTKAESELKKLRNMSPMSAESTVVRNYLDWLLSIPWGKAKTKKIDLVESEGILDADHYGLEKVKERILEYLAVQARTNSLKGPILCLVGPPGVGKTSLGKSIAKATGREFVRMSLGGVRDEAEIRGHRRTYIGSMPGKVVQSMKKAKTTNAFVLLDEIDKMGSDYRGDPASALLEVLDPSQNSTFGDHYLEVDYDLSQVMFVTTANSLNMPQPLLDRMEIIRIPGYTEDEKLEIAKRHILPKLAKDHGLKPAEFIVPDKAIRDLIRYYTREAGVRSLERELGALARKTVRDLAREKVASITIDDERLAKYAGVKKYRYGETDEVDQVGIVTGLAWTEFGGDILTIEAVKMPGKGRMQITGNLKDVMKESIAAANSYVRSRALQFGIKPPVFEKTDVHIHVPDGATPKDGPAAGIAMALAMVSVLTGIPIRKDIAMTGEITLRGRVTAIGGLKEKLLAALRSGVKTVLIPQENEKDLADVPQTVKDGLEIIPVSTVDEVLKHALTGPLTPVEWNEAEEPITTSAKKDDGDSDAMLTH

[2] = target: T2, Lon^WT-Twin-Strep-tag (C. crescentus) (UniProt B8GX12); experiment: as above
T2 sequence: T1 sequence with A674S

B1: DnaA (protein, UniProt P0CAU4 1-490)
chain: MTMKGGVASQDFSAAIATACEPAANVWSKVCVALKRELGDAAFGSWIAPAMLREAATGDVVLVTSTGIARDWIRRSAWRRIGELWAAHDATGRRIDLKSRLEFEAAAGAYVEATPKAVAAEPIEIVLPVSTDAPTVVAPSAKSPRTQGLQERFTFETFVPGPANEFAHAVARRIANWADGHFNPVLFHGPYGFGKTHLLNALAWEAMRNAPEKRVVYLTAERFLSTFVRAVMDRQTAAFKEELRAADLLIIDDVHFIAGKQSTQEELFHTLTALVGEGGRVVFSADRPPSAMTEMDAHLRSHLSAGLVCGLEPADRNLRLGILERKIQTLGAAHGFEPSIRPEVMQFLADRFTDSVRELEGALNTLSARAGEGLSRMTLDEVQAILRPHLRSGEKRITIDDIQKATAEHYGMKQADLLSERRNRAVARPRQAAMWLAKQLTTRSLPDIGRRFGGRDHTTVLHAVRRIEALRAEDSALSHDLETLTRKLRG
Q: Which results are given for B1?
A: binding [1]: binds; binding [2]: no binding
